The text below walks through data of the supplement of paper PMC12819154, “High-throughput peptide-centric local stability assay extends protein–ligand identification to membrane proteins, tissues and bacteria” (Nature Structural & Molecular Biology, 2025).

Protein sequences, listed by entry. Tags and fused reporters are not part of them. Lines headed by an entry give the natural chain unless they say otherwise; changes in a name come on top.
UniProt O75063: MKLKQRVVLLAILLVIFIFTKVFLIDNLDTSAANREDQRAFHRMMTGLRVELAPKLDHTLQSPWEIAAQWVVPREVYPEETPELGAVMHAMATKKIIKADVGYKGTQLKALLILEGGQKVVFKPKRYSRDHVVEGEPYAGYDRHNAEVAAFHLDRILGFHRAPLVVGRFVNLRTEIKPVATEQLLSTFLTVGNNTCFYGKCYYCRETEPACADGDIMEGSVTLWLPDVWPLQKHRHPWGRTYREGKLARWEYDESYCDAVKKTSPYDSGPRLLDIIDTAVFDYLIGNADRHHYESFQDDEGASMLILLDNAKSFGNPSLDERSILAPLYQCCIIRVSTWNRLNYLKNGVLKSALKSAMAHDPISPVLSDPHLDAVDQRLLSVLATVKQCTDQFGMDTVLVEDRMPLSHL
UniProt O60716: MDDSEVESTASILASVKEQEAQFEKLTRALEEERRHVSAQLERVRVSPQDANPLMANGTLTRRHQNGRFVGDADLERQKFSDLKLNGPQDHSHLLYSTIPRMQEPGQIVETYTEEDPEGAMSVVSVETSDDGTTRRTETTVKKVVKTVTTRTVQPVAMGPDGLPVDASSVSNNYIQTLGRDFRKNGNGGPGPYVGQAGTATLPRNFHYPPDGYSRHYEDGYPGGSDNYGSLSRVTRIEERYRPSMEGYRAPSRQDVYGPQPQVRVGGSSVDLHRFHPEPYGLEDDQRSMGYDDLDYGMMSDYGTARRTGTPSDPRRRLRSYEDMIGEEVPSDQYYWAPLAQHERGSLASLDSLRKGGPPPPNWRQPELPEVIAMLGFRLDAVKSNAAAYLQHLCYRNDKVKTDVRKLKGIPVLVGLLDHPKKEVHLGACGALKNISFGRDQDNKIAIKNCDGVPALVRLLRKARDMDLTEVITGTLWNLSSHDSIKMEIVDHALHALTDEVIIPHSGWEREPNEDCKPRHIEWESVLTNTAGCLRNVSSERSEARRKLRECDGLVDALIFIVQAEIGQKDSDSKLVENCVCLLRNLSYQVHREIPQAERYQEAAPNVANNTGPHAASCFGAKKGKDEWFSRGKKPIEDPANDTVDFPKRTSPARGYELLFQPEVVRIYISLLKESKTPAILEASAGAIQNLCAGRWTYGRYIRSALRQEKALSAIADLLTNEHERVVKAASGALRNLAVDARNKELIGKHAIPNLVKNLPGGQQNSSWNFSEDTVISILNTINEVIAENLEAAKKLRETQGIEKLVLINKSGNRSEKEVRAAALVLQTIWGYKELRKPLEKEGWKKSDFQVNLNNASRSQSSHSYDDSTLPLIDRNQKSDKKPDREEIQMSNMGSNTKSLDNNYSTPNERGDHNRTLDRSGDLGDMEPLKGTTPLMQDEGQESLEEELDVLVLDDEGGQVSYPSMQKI
UniProt O60779: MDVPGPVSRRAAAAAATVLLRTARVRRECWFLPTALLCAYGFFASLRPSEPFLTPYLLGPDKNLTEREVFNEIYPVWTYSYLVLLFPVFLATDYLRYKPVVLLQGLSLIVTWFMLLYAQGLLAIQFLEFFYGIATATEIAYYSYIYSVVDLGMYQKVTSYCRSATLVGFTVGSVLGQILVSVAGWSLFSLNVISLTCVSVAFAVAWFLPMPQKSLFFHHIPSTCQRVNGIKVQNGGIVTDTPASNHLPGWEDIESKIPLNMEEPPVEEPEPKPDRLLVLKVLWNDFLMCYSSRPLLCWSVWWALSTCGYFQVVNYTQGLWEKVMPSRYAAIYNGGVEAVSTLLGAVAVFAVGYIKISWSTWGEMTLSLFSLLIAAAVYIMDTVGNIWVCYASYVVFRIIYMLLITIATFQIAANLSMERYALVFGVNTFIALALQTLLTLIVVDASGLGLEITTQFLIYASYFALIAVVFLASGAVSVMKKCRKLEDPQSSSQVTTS
UniProt O75306, whole entry: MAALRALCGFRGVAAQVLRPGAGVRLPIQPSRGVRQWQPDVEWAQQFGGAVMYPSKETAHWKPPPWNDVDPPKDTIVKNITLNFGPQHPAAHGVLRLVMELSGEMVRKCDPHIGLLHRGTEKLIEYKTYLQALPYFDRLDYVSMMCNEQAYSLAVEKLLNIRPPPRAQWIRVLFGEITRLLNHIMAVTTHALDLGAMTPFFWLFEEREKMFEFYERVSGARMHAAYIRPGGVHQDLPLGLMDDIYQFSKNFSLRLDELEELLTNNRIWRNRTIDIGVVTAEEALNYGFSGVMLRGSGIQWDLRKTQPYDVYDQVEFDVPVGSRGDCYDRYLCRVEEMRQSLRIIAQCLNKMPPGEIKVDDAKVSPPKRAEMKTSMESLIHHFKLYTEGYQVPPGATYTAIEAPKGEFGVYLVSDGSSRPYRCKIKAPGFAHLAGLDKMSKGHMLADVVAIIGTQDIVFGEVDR
UniProt O60664: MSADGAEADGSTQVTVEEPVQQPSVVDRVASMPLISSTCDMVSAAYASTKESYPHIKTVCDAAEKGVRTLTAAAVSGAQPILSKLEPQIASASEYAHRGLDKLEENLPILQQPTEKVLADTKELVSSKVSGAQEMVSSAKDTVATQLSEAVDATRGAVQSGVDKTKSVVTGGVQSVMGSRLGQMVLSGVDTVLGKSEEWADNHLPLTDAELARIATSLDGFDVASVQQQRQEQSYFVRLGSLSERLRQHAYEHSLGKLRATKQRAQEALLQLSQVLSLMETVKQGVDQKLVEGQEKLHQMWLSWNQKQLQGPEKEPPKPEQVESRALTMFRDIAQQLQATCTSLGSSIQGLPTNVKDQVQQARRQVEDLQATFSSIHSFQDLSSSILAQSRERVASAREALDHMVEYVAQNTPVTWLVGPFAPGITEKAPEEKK
UniProt O75368: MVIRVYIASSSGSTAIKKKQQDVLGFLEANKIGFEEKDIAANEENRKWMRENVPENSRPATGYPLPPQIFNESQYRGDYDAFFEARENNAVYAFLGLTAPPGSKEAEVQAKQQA
UniProt O60234, whole entry: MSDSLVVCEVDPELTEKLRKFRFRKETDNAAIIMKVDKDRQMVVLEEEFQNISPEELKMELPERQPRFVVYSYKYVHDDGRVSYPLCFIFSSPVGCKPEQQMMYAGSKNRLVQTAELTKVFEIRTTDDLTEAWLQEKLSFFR
UniProt O60232: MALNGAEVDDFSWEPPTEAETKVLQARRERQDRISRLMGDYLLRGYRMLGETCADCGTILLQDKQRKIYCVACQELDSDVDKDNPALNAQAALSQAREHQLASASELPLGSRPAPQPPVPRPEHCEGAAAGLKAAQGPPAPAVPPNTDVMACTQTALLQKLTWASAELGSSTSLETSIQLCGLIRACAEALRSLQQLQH
UniProt O15504: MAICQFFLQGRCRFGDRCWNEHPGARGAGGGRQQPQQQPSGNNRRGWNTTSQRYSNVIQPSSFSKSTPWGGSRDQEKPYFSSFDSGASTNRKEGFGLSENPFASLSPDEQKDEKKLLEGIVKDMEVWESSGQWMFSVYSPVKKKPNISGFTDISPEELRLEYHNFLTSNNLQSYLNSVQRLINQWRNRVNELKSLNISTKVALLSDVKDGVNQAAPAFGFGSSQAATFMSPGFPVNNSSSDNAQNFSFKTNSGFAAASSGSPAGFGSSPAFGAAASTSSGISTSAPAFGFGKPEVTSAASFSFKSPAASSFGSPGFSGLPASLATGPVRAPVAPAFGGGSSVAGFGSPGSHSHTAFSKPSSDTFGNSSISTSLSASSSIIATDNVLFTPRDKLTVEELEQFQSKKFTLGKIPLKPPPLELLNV
UniProt O43439: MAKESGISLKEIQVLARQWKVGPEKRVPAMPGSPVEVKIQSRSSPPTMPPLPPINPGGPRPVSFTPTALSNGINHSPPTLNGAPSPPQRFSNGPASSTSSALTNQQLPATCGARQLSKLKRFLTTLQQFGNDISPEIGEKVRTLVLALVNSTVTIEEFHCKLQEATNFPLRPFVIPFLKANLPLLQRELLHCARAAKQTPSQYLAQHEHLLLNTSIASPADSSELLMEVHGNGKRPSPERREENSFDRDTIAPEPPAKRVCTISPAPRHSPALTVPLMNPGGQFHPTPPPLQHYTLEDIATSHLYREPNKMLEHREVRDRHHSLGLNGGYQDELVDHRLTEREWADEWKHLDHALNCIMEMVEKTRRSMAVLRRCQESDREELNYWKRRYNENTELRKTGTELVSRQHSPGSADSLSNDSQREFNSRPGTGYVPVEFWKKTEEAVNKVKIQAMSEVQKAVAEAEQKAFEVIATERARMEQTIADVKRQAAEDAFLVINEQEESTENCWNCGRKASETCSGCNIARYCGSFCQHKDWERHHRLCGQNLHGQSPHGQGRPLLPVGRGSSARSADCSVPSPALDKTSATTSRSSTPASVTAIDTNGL
UniProt O15523: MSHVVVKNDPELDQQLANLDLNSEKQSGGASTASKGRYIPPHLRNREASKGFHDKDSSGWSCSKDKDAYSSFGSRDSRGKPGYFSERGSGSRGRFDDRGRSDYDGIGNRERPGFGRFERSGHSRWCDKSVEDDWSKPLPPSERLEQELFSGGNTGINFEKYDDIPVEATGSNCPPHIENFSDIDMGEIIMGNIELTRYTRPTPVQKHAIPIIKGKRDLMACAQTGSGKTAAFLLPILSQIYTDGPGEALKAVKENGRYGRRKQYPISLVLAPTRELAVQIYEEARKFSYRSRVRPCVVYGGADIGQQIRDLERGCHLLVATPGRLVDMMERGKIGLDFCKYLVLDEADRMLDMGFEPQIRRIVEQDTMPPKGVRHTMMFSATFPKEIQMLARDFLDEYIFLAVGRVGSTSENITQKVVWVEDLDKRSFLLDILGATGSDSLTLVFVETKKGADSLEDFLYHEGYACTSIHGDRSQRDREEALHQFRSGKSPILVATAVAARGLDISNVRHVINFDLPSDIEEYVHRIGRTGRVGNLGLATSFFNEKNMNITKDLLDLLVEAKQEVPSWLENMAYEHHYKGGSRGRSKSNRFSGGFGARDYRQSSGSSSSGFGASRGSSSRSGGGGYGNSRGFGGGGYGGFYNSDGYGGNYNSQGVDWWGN
UniProt O43674, whole entry: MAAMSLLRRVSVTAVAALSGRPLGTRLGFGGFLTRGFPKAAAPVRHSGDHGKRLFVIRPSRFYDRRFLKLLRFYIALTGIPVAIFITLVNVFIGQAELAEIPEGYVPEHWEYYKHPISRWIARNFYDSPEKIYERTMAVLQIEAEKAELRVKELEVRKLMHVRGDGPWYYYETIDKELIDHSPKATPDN
UniProt O75064: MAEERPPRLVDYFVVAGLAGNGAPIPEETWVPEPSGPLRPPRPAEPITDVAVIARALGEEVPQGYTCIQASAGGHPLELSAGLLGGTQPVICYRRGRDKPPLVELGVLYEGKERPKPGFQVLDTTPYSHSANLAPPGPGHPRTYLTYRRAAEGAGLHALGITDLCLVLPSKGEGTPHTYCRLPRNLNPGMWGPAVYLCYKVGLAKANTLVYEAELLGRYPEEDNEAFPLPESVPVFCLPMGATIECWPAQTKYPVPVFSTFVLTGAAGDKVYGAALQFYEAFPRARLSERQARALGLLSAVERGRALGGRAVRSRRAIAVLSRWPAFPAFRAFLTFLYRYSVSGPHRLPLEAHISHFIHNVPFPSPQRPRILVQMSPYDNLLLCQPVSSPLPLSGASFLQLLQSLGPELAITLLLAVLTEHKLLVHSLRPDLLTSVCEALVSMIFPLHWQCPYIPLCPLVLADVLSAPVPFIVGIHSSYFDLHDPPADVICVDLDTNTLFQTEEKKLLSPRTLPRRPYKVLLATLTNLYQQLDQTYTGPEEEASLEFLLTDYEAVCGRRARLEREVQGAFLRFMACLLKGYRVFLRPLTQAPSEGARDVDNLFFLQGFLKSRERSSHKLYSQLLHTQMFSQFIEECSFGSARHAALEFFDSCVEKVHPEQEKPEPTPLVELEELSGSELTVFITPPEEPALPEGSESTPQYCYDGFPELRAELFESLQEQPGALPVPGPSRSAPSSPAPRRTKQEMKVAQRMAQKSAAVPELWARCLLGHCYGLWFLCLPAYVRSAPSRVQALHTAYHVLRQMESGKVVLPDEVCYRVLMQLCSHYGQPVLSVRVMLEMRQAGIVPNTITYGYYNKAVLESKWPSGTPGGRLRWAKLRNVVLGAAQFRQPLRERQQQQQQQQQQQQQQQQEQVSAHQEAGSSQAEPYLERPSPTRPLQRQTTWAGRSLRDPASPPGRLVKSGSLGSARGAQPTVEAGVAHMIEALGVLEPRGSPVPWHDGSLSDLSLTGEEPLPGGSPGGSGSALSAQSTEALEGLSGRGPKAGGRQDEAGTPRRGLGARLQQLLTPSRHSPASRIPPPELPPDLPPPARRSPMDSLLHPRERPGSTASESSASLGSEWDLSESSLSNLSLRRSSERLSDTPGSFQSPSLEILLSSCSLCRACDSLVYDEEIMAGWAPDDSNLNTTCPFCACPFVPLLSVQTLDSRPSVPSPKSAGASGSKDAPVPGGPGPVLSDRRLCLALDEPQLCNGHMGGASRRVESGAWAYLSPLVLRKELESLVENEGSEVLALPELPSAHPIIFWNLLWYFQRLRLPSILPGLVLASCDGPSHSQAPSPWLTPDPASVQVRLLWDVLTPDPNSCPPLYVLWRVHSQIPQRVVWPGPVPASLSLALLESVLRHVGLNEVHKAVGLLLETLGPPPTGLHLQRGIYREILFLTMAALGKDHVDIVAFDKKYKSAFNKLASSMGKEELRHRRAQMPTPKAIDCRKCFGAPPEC

Some of the results follow. Most values lie at the level of the controls, where differences are scatter.

Compound in this experiment: CN[C@@H]1C[C@H]2O[C@@](C)([C@@H]1OC)n1c3ccccc3c3c4c(c5c6ccccc6n2c5c31)C(=O)NC4 [staurosporine]
Put plainly: log2 fold change of tryptic peptide abundance, ligand vs vehicle (limited proteolysis) (log2 ratio); higher = more trypsin-susceptible (destabilized). The following applies: ligand concentration: 20 uM; sample: K562 cleared lysate; digestion: 4 min, 22 C (HT-PELSA RT4min, Orbitrap Astral).
With “MAFG (peptide sequence: GPLAAGLGPLVPGK, peptide start residue: 131) (UniProt O15525)”, the log2 fold change was -0.439.

Regarding “SPAG9 (peptide sequence: FQELSQPR, peptide start residue: 234) (UniProt O60271)”, the log2 fold change is -0.117.

With “CEP104 (peptide sequence: EIQAEVQEKESDAVKPK, peptide start residue: 711) (UniProt O60308)”, the log2 fold change was -0.635.

For “FAM20B (peptide sequence: SFGNPSLDER, peptide start residue: 313) (UniProt O75063)”, the log2 fold change was determined as 0.0672.

For the target “RANBP6 (peptide sequence: FYFHDNVR, peptide start residue: 721) (UniProt O60518)”, the log2 fold change amounted to 0.778.

For the target “VPS4B (peptide sequence: SENESEAARR, peptide start residue: 244) (UniProt O75351)”, the log2 fold change is 0.972.

For “CTNND1 (peptide sequence: RTETTVKK, peptide start residue: 136) (UniProt O60716)”, the log2 fold change is 0.527.

For “SLC19A2 (peptide sequence: AAAAAATVLLR, peptide start residue: 11) (UniProt O60779)”, the log2 fold change is -0.0235.

Take “TRAF3IP2 (peptide sequence: DCSFPGLPR, peptide start residue: 340) (UniProt O43734)”: the log2 fold change was 0.236.

Regarding “NDUFS2 (peptide sequence: NITLNFGPQHPAAHGVLR, peptide start residue: 79) (UniProt O75306)”, the log2 fold change is -0.168.

For the target “SGTA (peptide sequence: LGNYAGAVQDCER, peptide start residue: 138) (UniProt O43765)”, the log2 fold change was -0.277.

For the target “UniProt O60664 (peptide sequence: QHAYEHSLGK, peptide start residue: 248)”, the log2 fold change was 0.314.

With “SH3BGRL (peptide sequence: DIAANEENRK, peptide start residue: 38) (UniProt O75368)”, the log2 fold change was -0.817.

Turning to “TBC1D12 (peptide sequence: SDACLLGSGSK, peptide start residue: 106) (UniProt O60347)”, the log2 fold change worked out at 0.532.

Regarding “GMFG (peptide sequence: LVQTAELTK, peptide start residue: 111) (UniProt O60234)”, the log2 fold change turned out to be 0.116.

On to “DNAJB6 (peptide sequence: SLTINGVADDDALAEER, peptide start residue: 226) (UniProt O75190)”, for which the log2 fold change is -0.476.

On to “MYO1B (peptide sequence: RLKEEAR, peptide start residue: 801) (UniProt O43795)”, for which the log2 fold change is -0.0143.

For “CHMP2A (peptide sequence: QKLETQEK, peptide start residue: 34) (UniProt O43633)”, the log2 fold change stood at 0.309.

Consider “UniProt O60282 (peptide sequence: CELPKLEK, peptide start residue: 858)”, for which the log2 fold change was 0.162.

Regarding “YKT6 (peptide sequence: VAFTLLEK, peptide start residue: 89) (UniProt O15498)”, the log2 fold change amounted to 0.161.

Regarding “UniProt O60232 (peptide sequence: PAPQPPVPRPEHCEGAAAGLK, peptide start residue: 113)”, the log2 fold change is -0.133.

For the target “UniProt O75123 (peptide sequence: NHILNSDLLLLQR, peptide start residue: 103)”, the log2 fold change came out at 0.3.

As to “ACTN4 (peptide sequence: STLPDADRER, peptide start residue: 575) (UniProt O43707)”, the log2 fold change is 1.21.

Consider “UniProt O43156 (peptide sequence: TSATQPWNR, peptide start residue: 462)”, for which the log2 fold change is 0.317.

“DNAJA2 (peptide sequence: VSLEDLYNGK, peptide start residue: 122) (UniProt O60884)”: the log2 fold change worked out at 0.359.

On to “UniProt O15504 (peptide sequence: DQEKPYFSSFDSGASTNRK, peptide start residue: 74)”, for which the log2 fold change came out at 0.299.

“BCL2L11 (peptide sequence: SPLFIFMR, peptide start residue: 77) (UniProt O43521)”: the log2 fold change was -0.324.

With “KIF1C (peptide sequence: SRGAGSAQPEPQHFQPK, peptide start residue: 1040) (UniProt O43896)”, the log2 fold change is -0.945.

For the target “UniProt O75164 (peptide sequence: FYQCEVVR, peptide start residue: 914)”, the log2 fold change worked out at 0.347.

As for “CBFA2T2 (peptide sequence: IQAMSEVQK, peptide start residue: 450) (UniProt O43439)”, the log2 fold change was -0.626.

Take “UniProt O43847 (peptide sequence: LGADESEEEGR, peptide start residue: 81)”: the log2 fold change was -0.131.

As for “ZBTB43 (peptide sequence: WIHVKPER, peptide start residue: 243) (UniProt O43298)”, the log2 fold change was determined as 0.295.

For “UniProt O15523 (peptide sequence: MLDMGFEPQIRR, peptide start residue: 352)”, the log2 fold change is 0.213.

Turning to “RRP9 (peptide sequence: GKPASGAGAGAGAGKR, peptide start residue: 11) (UniProt O43818)”, the log2 fold change was 0.155.

For the target “NDUFB5 (peptide sequence: LGFGGFLTR, peptide start residue: 27) (UniProt O43674)”, the log2 fold change is 0.133.

With “CCNT1 (peptide sequence: VAHTCLHPQESLPDTR, peptide start residue: 107) (UniProt O60563)”, the log2 fold change was -0.956.

Regarding “DENND4B (peptide sequence: VVLPDEVCYR, peptide start residue: 808) (UniProt O75064)”, the log2 fold change turned out to be 0.322.
